Measurements reported in the supplement of paper PMC12823440, “Inhibitors supercharge kinase turnover through native proteolytic circuits” (Nature, 2025).
Structures can show the parent of a compound that is named as a salt. The list shows a part of the results. The calls rarely recur for the same compound in another form.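 In K562 cells expressing nanoluciferase-fused kinases, luminescence was recorded at 4 h intervals between 2 and 18 h, normalized as percent of control with DMSO at 100% and a positive control at 0%. A significant (2 sigma) signal drop marks a time point as decreased. The authors' rule for a hit is not shown and takes in more than the number of time points.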

The chains behind the UniProt entries cited, without tags or fusion partners. Where a name states a change or a piece, a line headed by the entry shows the natural chain unless it says otherwise.
UniProt Q15208: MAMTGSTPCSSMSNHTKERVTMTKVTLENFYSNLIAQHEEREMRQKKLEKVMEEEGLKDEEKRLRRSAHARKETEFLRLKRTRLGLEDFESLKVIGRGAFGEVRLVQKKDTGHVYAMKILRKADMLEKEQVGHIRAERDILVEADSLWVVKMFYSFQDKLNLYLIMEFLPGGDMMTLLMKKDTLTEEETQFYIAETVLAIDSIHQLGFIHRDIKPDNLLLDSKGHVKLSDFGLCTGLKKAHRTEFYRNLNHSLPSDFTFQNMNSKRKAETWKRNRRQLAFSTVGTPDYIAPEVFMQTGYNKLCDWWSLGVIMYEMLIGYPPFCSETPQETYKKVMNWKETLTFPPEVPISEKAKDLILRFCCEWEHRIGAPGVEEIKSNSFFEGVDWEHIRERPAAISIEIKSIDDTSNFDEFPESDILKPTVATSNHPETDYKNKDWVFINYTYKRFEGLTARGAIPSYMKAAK
UniProt P42680: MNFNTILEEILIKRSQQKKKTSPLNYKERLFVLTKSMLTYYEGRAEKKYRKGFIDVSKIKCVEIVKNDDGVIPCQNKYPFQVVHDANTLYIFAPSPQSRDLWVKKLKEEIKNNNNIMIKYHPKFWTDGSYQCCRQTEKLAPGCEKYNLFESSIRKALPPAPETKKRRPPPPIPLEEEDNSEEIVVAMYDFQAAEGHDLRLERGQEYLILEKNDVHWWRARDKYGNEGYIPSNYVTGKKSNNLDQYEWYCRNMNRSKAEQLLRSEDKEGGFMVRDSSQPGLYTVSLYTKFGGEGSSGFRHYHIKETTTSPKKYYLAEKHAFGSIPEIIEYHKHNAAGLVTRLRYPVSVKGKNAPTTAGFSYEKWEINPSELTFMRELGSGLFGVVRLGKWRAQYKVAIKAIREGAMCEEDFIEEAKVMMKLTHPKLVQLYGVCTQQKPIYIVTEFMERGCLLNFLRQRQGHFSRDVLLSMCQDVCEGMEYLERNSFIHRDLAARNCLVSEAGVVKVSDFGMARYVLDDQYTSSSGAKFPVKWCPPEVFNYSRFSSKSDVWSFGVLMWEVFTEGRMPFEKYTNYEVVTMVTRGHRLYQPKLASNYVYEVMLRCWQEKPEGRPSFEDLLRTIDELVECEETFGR
UniProt P29597: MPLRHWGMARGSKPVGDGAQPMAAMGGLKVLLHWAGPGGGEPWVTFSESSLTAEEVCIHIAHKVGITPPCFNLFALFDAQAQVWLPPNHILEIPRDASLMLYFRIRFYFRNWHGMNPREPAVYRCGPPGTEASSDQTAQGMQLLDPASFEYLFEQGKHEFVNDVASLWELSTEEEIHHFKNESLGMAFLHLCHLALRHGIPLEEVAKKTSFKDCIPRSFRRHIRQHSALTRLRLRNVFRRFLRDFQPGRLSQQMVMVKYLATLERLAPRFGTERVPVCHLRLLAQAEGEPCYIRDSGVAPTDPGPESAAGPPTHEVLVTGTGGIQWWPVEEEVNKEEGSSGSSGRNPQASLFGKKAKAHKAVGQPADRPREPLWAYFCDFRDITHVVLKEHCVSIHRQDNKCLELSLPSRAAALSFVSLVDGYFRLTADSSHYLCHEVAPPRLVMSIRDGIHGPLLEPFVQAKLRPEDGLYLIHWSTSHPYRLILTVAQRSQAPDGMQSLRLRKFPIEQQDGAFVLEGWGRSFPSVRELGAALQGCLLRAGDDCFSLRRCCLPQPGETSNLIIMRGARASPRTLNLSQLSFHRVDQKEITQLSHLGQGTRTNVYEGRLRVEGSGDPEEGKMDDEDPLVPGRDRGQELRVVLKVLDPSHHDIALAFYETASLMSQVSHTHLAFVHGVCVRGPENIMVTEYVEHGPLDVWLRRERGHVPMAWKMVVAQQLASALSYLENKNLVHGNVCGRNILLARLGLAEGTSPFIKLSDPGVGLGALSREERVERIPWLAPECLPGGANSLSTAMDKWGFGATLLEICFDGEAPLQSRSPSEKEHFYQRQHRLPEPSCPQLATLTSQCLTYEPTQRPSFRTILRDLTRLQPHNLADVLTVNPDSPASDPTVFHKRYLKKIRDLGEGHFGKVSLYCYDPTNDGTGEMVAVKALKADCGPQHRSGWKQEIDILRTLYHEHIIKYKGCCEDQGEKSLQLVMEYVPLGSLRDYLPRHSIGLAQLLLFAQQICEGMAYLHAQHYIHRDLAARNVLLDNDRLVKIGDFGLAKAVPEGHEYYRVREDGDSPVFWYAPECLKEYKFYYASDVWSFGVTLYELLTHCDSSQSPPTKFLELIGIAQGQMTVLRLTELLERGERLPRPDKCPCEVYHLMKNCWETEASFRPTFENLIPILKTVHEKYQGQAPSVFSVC
UniProt Q6PHR2: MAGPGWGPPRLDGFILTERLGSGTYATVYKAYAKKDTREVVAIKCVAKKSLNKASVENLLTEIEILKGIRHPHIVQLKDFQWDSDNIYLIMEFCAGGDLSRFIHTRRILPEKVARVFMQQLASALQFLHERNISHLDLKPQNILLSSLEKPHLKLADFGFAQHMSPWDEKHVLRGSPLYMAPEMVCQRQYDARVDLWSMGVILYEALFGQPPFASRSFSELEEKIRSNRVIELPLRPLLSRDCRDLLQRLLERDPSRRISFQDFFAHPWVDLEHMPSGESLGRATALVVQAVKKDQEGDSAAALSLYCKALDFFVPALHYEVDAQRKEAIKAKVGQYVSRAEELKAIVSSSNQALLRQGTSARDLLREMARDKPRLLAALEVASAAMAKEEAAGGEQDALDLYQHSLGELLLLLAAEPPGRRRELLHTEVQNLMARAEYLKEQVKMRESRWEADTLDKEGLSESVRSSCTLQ
UniProt P07947, whole entry, looked up: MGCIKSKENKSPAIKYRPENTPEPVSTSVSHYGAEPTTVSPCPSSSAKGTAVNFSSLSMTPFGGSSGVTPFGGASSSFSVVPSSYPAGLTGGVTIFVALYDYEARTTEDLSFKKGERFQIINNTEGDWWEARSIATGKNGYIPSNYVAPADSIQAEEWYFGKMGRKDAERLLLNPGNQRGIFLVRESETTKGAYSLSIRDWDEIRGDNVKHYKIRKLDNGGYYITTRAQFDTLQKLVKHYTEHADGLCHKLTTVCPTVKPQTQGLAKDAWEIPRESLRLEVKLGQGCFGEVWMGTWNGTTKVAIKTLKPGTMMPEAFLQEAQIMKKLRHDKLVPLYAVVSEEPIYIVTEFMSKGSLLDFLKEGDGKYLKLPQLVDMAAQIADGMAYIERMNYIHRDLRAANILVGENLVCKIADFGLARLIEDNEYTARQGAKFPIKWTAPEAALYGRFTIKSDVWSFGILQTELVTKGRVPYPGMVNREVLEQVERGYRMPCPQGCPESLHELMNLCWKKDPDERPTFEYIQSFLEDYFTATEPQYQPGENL
UniProt P43403: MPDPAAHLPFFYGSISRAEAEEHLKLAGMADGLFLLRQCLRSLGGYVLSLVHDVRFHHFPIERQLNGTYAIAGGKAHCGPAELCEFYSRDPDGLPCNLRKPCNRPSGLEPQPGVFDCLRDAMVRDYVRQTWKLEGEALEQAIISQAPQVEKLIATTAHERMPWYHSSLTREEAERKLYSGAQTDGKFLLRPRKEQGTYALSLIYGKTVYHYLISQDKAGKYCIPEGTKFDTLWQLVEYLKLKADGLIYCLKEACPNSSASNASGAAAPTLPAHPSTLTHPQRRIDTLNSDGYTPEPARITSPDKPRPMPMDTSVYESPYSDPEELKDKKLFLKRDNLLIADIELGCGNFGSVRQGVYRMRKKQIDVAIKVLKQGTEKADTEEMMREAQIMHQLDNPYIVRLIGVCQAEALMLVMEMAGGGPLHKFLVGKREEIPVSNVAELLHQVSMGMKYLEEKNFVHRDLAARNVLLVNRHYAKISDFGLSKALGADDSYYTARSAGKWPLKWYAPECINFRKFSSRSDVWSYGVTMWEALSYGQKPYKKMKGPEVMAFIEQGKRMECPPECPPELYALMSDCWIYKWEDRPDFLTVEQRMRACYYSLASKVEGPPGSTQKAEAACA
UniProt P00519, whole entry: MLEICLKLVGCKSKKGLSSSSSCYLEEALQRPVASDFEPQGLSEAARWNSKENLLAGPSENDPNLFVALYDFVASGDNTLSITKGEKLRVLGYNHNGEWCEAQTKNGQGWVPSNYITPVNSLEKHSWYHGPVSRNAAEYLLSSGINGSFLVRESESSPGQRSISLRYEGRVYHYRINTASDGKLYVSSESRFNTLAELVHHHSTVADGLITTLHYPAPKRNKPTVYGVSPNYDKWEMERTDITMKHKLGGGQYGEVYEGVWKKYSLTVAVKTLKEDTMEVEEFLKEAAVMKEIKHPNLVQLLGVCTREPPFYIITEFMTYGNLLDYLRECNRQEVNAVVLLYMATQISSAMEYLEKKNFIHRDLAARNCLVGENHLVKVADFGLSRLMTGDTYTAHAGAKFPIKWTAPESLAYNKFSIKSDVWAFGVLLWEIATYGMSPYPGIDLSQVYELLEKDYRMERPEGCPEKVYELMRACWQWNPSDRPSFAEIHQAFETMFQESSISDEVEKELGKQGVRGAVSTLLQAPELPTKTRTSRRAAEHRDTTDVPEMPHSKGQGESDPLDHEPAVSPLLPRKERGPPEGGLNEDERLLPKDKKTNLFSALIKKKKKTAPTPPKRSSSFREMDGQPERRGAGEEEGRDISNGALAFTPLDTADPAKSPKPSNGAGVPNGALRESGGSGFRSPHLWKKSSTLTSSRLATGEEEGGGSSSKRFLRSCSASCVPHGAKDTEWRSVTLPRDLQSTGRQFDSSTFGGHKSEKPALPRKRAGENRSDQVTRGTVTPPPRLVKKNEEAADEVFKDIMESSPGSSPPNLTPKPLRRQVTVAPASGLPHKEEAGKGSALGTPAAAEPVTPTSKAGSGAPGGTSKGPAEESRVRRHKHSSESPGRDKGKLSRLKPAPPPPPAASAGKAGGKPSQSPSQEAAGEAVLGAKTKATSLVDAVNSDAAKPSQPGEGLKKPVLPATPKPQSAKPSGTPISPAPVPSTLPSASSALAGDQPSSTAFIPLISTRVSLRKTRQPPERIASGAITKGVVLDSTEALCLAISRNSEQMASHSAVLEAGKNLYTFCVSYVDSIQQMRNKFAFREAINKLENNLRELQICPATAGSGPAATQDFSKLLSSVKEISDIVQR
UniProt P31749: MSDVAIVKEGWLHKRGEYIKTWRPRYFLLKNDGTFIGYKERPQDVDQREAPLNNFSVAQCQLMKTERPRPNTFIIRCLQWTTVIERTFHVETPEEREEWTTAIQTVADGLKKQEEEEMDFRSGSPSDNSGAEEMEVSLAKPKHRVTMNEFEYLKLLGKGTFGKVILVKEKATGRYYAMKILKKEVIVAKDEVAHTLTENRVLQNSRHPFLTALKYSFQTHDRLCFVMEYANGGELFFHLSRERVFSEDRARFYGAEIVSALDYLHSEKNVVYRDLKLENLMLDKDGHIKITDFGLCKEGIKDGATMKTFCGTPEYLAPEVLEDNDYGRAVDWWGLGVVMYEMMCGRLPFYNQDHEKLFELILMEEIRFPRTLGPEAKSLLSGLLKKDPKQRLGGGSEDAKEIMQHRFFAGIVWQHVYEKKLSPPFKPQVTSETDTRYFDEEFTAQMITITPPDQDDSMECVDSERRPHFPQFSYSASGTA

Key:
Settings in all cases: K562; 2-18 h
STK38 = STK38 (UniProt Q15208); assay: kinase-Nluc reporter destabilization hit call (1 = scored as downregulated) (binary); higher = compound decreases kinase abundance
SYK = SYK (UniProt P43405); assay: as above
TEC = TEC (UniProt P42680); assay: as above
TYK2 = TYK2 (UniProt P29597); assay: as above
ULK3 = ULK3 (UniProt Q6PHR2); assay: as above
YES1 = YES1 (UniProt P07947); assay: as above
ZAK = ZAK (UniProt Q9NYL2); assay: as above
ZAP70 = ZAP70 (UniProt P43403); assay: as above
ABL1 = ABL1 (UniProt P00519); assay: number of time points (of 5) at which kinase-Nluc abundance scored as decreased, DMSO-normalised (count); higher = more persistent destabilization
AKT1 = AKT1 (UniProt P31749); assay: as above

Cc1ncc(-c2cc(F)c(O)c(F)c2)cc1-c1cc(F)c(O)c(F)c1 (10 µM)
0: number of time points (ABL1) | number of time points (AKT1)
inactive: kinase-Nluc reporter destabilization hit call (STK38) 0 | kinase-Nluc reporter destabilization hit call (SYK) 0 | kinase-Nluc reporter destabilization hit call (TEC) 0 | kinase-Nluc reporter destabilization hit call (TYK2) 0 | kinase-Nluc reporter destabilization hit call (ULK3) 0 | kinase-Nluc reporter destabilization hit call (YES1) 0 | kinase-Nluc reporter destabilization hit call (ZAK) 0 | kinase-Nluc reporter destabilization hit call (ZAP70) 0

CC1=CC(=O)C(C(C)C)=C/C1=N/OC(=O)c1ccccc1C [Poloxin] (2.5 µM)
0: number of time points (ABL1) | number of time points (AKT1)
inactive: kinase-Nluc reporter destabilization hit call (STK38) 0 | kinase-Nluc reporter destabilization hit call (SYK) 0 | kinase-Nluc reporter destabilization hit call (TEC) 0 | kinase-Nluc reporter destabilization hit call (TYK2) 0 | kinase-Nluc reporter destabilization hit call (ULK3) 0 | kinase-Nluc reporter destabilization hit call (YES1) 0 | kinase-Nluc reporter destabilization hit call (ZAK) 0 | kinase-Nluc reporter destabilization hit call (ZAP70) 0

CC(=O)Nc1nc(C)c(-c2cc(C)c3c(c2)CN([C@@H](C)C2CC2)C3=O)s1 (10 µM)
0: number of time points (ABL1) | number of time points (AKT1)
inactive: kinase-Nluc reporter destabilization hit call (STK38) 0 | kinase-Nluc reporter destabilization hit call (SYK) 0 | kinase-Nluc reporter destabilization hit call (TEC) 0 | kinase-Nluc reporter destabilization hit call (TYK2) 0 | kinase-Nluc reporter destabilization hit call (ULK3) 0 | kinase-Nluc reporter destabilization hit call (YES1) 0 | kinase-Nluc reporter destabilization hit call (ZAK) 0 | kinase-Nluc reporter destabilization hit call (ZAP70) 0

COc1ccc(Br)c(C=O)c1O [6-Bromo-2-hydroxy-3-methoxybenzaldehyde] (10 µM)
0: number of time points (ABL1) | number of time points (AKT1)
inactive: kinase-Nluc reporter destabilization hit call (STK38) 0 | kinase-Nluc reporter destabilization hit call (SYK) 0 | kinase-Nluc reporter destabilization hit call (TEC) 0 | kinase-Nluc reporter destabilization hit call (TYK2) 0 | kinase-Nluc reporter destabilization hit call (ULK3) 0 | kinase-Nluc reporter destabilization hit call (YES1) 0 | kinase-Nluc reporter destabilization hit call (ZAK) 0 | kinase-Nluc reporter destabilization hit call (ZAP70) 0

Nc1nc(Nc2ccc3c(c2)CC[C@@H](N2CCCC2)CC3)nn1-c1cc2c(nn1)-c1ccccc1CCC2 [Bemcentinib] (2.5 µM)
0: number of time points (ABL1) | number of time points (AKT1)
inactive: kinase-Nluc reporter destabilization hit call (STK38) 0 | kinase-Nluc reporter destabilization hit call (SYK) 0 | kinase-Nluc reporter destabilization hit call (TEC) 0 | kinase-Nluc reporter destabilization hit call (TYK2) 0 | kinase-Nluc reporter destabilization hit call (ULK3) 0 | kinase-Nluc reporter destabilization hit call (YES1) 0 | kinase-Nluc reporter destabilization hit call (ZAK) 0 | kinase-Nluc reporter destabilization hit call (ZAP70) 0

O=C(Nc1ccccc1C(=O)NC1CCCCNC1=O)c1cc2ccccc2s1 (stereo not given) (10 µM)
inactive: kinase-Nluc reporter destabilization hit call (STK38) 0 | kinase-Nluc reporter destabilization hit call (SYK) 0 | kinase-Nluc reporter destabilization hit call (TEC) 0 | kinase-Nluc reporter destabilization hit call (TYK2) 0 | kinase-Nluc reporter destabilization hit call (ULK3) 0 | kinase-Nluc reporter destabilization hit call (YES1) 0 | kinase-Nluc reporter destabilization hit call (ZAK) 0 | kinase-Nluc reporter destabilization hit call (ZAP70) 0
0: number of time points (ABL1) | number of time points (AKT1)

CS[C@@]1(C(=O)Nc2ccc3[nH]nc(-c4ccc(OC(C)C)nc4)c3c2)CCN(CC(=O)N2CC=C(c3ccc(-c4ncn(C)n4)cc3)CC2)C1 (2.5 µM)
0: number of time points (ABL1) | number of time points (AKT1)
inactive: kinase-Nluc reporter destabilization hit call (STK38) 0 | kinase-Nluc reporter destabilization hit call (SYK) 0 | kinase-Nluc reporter destabilization hit call (TEC) 0 | kinase-Nluc reporter destabilization hit call (TYK2) 0 | kinase-Nluc reporter destabilization hit call (ULK3) 0 | kinase-Nluc reporter destabilization hit call (YES1) 0 | kinase-Nluc reporter destabilization hit call (ZAK) 0 | kinase-Nluc reporter destabilization hit call (ZAP70) 0

O=C(O)c1c[nH]c2cc(Cl)c(-c3ccc(C4(O)CCC4)cc3)cc12 (10 µM)
0: number of time points (ABL1) | number of time points (AKT1)
inactive: kinase-Nluc reporter destabilization hit call (STK38) 0 | kinase-Nluc reporter destabilization hit call (SYK) 0 | kinase-Nluc reporter destabilization hit call (TEC) 0 | kinase-Nluc reporter destabilization hit call (TYK2) 0 | kinase-Nluc reporter destabilization hit call (ULK3) 0 | kinase-Nluc reporter destabilization hit call (YES1) 0 | kinase-Nluc reporter destabilization hit call (ZAK) 0 | kinase-Nluc reporter destabilization hit call (ZAP70) 0

COc1ccc(CCNCc2ccc(OCc3ccc(Cl)nc3)c(OC)c2)cc1OC [SBE13 (Hydrochloride)] (10 µM)
inactive: kinase-Nluc reporter destabilization hit call (STK38) 0 | kinase-Nluc reporter destabilization hit call (SYK) 0 | kinase-Nluc reporter destabilization hit call (TEC) 0 | kinase-Nluc reporter destabilization hit call (TYK2) 0 | kinase-Nluc reporter destabilization hit call (ULK3) 0 | kinase-Nluc reporter destabilization hit call (YES1) 0 | kinase-Nluc reporter destabilization hit call (ZAK) 0 | kinase-Nluc reporter destabilization hit call (ZAP70) 0
0: number of time points (ABL1) | number of time points (AKT1)

CS(=O)(=O)c1cccc(CNc2nc(Nc3ccc4c(c3)CCC(=O)N4)ncc2C(F)(F)F)c1 (10 µM)
inactive: kinase-Nluc reporter destabilization hit call (STK38) 0 | kinase-Nluc reporter destabilization hit call (SYK) 0 | kinase-Nluc reporter destabilization hit call (TEC) 0 | kinase-Nluc reporter destabilization hit call (TYK2) 0 | kinase-Nluc reporter destabilization hit call (ULK3) 0 | kinase-Nluc reporter destabilization hit call (YES1) 0 | kinase-Nluc reporter destabilization hit call (ZAK) 0 | kinase-Nluc reporter destabilization hit call (ZAP70) 0
0: number of time points (ABL1) | number of time points (AKT1)

Pulled by compound from the list above, 2 records:
O=C(O)c1c[nH]c2cc(Cl)c(-c3ccc(C4(O)CCC4)cc3)cc12 (10 µM)
0: number of time points (ABL1) | number of time points (AKT1)
inactive: kinase-Nluc reporter destabilization hit call (STK38) 0 | kinase-Nluc reporter destabilization hit call (SYK) 0 | kinase-Nluc reporter destabilization hit call (TEC) 0 | kinase-Nluc reporter destabilization hit call (TYK2) 0 | kinase-Nluc reporter destabilization hit call (ULK3) 0 | kinase-Nluc reporter destabilization hit call (YES1) 0 | kinase-Nluc reporter destabilization hit call (ZAK) 0 | kinase-Nluc reporter destabilization hit call (ZAP70) 0

CS[C@@]1(C(=O)Nc2ccc3[nH]nc(-c4ccc(OC(C)C)nc4)c3c2)CCN(CC(=O)N2CC=C(c3ccc(-c4ncn(C)n4)cc3)CC2)C1 (2.5 µM)
0: number of time points (ABL1) | number of time points (AKT1)
inactive: kinase-Nluc reporter destabilization hit call (STK38) 0 | kinase-Nluc reporter destabilization hit call (SYK) 0 | kinase-Nluc reporter destabilization hit call (TEC) 0 | kinase-Nluc reporter destabilization hit call (TYK2) 0 | kinase-Nluc reporter destabilization hit call (ULK3) 0 | kinase-Nluc reporter destabilization hit call (YES1) 0 | kinase-Nluc reporter destabilization hit call (ZAK) 0 | kinase-Nluc reporter destabilization hit call (ZAP70) 0

Later entries.

CCc1cc(Nc2nccc(-c3c(-c4ccc(OC)c(C(=O)Nc5c(F)cccc5F)c4)nc4ccccn34)n2)c(OC)cc1N1CCC(N2CCN(S(C)(=O)=O)CC2)CC1 (2.5 µM)
inactive: kinase-Nluc reporter destabilization hit call (STK38) 0 | kinase-Nluc reporter destabilization hit call (SYK) 0 | kinase-Nluc reporter destabilization hit call (TEC) 0 | kinase-Nluc reporter destabilization hit call (TYK2) 0 | kinase-Nluc reporter destabilization hit call (ULK3) 0 | kinase-Nluc reporter destabilization hit call (YES1) 0 | kinase-Nluc reporter destabilization hit call (ZAK) 0 | kinase-Nluc reporter destabilization hit call (ZAP70) 0
0: number of time points (ABL1) | number of time points (AKT1)

O=C(O)/C=C(\CCc1ccc(Cl)cc1)c1ccccc1 (10 µM)
0: number of time points (ABL1) | number of time points (AKT1)
inactive: kinase-Nluc reporter destabilization hit call (STK38) 0 | kinase-Nluc reporter destabilization hit call (SYK) 0 | kinase-Nluc reporter destabilization hit call (TEC) 0 | kinase-Nluc reporter destabilization hit call (TYK2) 0 | kinase-Nluc reporter destabilization hit call (ULK3) 0 | kinase-Nluc reporter destabilization hit call (YES1) 0 | kinase-Nluc reporter destabilization hit call (ZAK) 0 | kinase-Nluc reporter destabilization hit call (ZAP70) 0

CC(C)c1cc2c(c(O)c1O)[C@@]13CCCC(C)(C)[C@@H]1C[C@@H]2OC3=O [Carnosol] (2.5 µM)
inactive: kinase-Nluc reporter destabilization hit call (STK38) 0 | kinase-Nluc reporter destabilization hit call (SYK) 0 | kinase-Nluc reporter destabilization hit call (TEC) 0 | kinase-Nluc reporter destabilization hit call (TYK2) 0 | kinase-Nluc reporter destabilization hit call (ULK3) 0 | kinase-Nluc reporter destabilization hit call (YES1) 0 | kinase-Nluc reporter destabilization hit call (ZAK) 0 | kinase-Nluc reporter destabilization hit call (ZAP70) 0
0: number of time points (ABL1) | number of time points (AKT1)

O=C1CCC(N2C(=O)c3cccc(OCCCCCOc4ccc(CC(=O)Nc5cc(C6CCC6)[nH]n5)cc4)c3C2=O)C(=O)N1 (stereo not given) [PROTAC CDK9 Degrader-1] (10 µM)
inactive: kinase-Nluc reporter destabilization hit call (STK38) 0 | kinase-Nluc reporter destabilization hit call (SYK) 0 | kinase-Nluc reporter destabilization hit call (TEC) 0 | kinase-Nluc reporter destabilization hit call (TYK2) 0 | kinase-Nluc reporter destabilization hit call (ULK3) 0 | kinase-Nluc reporter destabilization hit call (YES1) 0 | kinase-Nluc reporter destabilization hit call (ZAK) 0 | kinase-Nluc reporter destabilization hit call (ZAP70) 0
0: number of time points (ABL1) | number of time points (AKT1)

Cc1cnc(Cl)nc1-c1ccc(N(Cc2ccc(CNC(=O)C(F)F)cc2)C(=O)c2ccc(O)cc2O)cc1 (10 µM)
inactive: kinase-Nluc reporter destabilization hit call (STK38) 0 | kinase-Nluc reporter destabilization hit call (SYK) 0 | kinase-Nluc reporter destabilization hit call (TEC) 0 | kinase-Nluc reporter destabilization hit call (TYK2) 0 | kinase-Nluc reporter destabilization hit call (ULK3) 0 | kinase-Nluc reporter destabilization hit call (YES1) 0 | kinase-Nluc reporter destabilization hit call (ZAK) 0 | kinase-Nluc reporter destabilization hit call (ZAP70) 0
0: number of time points (ABL1) | number of time points (AKT1)

C=CC(=O)Nc1cc(Nc2nccc(-c3cn(C)c4ccccc34)n2)c(OCC(F)(F)F)nc1N(C)CCNC [AST5902  (trimesylate)] (2.5 µM)
0: number of time points (AKT1)
inactive: kinase-Nluc reporter destabilization hit call (STK38) 0 | kinase-Nluc reporter destabilization hit call (SYK) 0 | kinase-Nluc reporter destabilization hit call (TEC) 0 | kinase-Nluc reporter destabilization hit call (TYK2) 0 | kinase-Nluc reporter destabilization hit call (ULK3) 0 | kinase-Nluc reporter destabilization hit call (YES1) 0 | kinase-Nluc reporter destabilization hit call (ZAK) 0 | kinase-Nluc reporter destabilization hit call (ZAP70) 0
2: number of time points (ABL1)
